At least one compound was matched to its structure with a doubt left.
System: MSU-induced Air Pouch acute gout model
Assay: MSU-induced Air Pouch acute gout model, IL-6 and IL-1β in APLV
Format: in vivo, C57BL/6 mice
Settings: MCC950 50 mg/kg po; 7a 50, 15, 5 mg/kg po; dexamethasone 10 mg/kg ip; MSU 3 mg
Experimental: Experimental Embodiment 3: Evaluation of the Therapeutic Effect of the Compound on the MSU-Induced Air Pouch Acute Gout Model in C57BL/6 Mice
Air Pouch of mouse is a cystic space similar to the human synovial membrane, and the injection of monosodium urate crystals (MSU) into the air pouch will cause an acute inflammatory response similar to human gout. The inflammatory cytokines IL-6 and IL-1β in the Air Pouch Lavage Fluid flushing fluid (APLV) were analyzed, and MCC950 was used as a control compound, and the efficacy of the compound of the present disclosure on the MSU-induced air pouch gout model in male C57BL/6 mice was tested.
On the seventh day, the drug was administered first, and the MSU crystal solution was injected into the air pouch after 1 hour, and the Air Pouch Lavage Fluid (APLV) was collected after 7 hours and analyzed.
1 g of uric acid was dissolved in 0.2 L of boiling water containing 6 mL of 1 N sodium hydroxide; after the pH was adjusted to 7.4, the solution was gradually cooled at room temperature and then left overnight at 4° C. […]
Healthy C57BL/6 mice were numbered and grouped in the experiment, and 5 mL of sterile air was subcutaneously injected into the back of the mice on the same day of grouping (Day 1) and on the fourth day (Day 4) to generate an air pouch. […] Results were expressed as average value±SEM. […]

C[C@@H]1C[C@H]2[C@@H]3CCC4=CC(=O)C=C[C@]4(C)[C@@]3(F)[C@@H](O)C[C@]2(C)[C@@]1(O)C(=O)CO [dexamethasone, reference compound]
level of IL-1β in APLV after treatment: decreased rapidly
level of IL-6 in APLV after treatment: decreased rapidly

Source: patent US12428391B2, “Dimethylsulfoximine derivative” (CISEN PHARMACEUTICAL CO., LTD, priority 2020, dated 2025)
